These are yes or no findings as the source states them, for the method shown. Binding seen in cells or lysates may run through a third protein. These calls come from enrichment with a bait or labelling near it, and not all partners need be listed.

Protein sequences, listed by entry. Tags and fused reporters are not part of them.
UniProt P26196: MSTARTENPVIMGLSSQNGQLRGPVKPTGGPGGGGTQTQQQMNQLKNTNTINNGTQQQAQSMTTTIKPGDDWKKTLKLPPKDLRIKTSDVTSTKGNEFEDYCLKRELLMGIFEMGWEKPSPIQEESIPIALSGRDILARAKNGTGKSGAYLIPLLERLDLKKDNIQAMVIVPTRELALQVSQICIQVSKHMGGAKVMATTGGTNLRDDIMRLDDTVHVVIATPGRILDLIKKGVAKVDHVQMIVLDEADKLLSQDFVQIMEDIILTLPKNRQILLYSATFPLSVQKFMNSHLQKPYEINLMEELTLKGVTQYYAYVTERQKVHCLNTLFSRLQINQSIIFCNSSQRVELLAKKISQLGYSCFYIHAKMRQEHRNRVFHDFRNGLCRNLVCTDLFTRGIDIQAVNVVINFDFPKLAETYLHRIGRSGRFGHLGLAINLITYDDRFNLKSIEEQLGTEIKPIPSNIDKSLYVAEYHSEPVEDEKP
UniProt Q9Y6M1: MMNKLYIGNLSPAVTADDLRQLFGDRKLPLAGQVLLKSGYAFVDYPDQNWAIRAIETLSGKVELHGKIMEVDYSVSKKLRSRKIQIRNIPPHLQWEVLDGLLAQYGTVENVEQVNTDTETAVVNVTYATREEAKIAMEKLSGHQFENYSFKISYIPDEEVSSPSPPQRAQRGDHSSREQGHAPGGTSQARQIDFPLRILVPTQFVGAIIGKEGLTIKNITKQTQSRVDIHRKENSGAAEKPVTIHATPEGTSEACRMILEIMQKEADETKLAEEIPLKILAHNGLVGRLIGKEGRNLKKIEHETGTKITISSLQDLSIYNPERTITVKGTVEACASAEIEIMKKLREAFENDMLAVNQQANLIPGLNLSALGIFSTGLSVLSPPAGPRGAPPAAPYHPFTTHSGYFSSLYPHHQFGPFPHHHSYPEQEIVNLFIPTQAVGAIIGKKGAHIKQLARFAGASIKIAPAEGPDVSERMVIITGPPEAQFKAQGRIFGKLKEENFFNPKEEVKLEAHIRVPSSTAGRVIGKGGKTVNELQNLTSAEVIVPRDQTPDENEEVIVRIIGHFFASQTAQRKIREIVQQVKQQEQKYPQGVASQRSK
UniProt Q8ND56: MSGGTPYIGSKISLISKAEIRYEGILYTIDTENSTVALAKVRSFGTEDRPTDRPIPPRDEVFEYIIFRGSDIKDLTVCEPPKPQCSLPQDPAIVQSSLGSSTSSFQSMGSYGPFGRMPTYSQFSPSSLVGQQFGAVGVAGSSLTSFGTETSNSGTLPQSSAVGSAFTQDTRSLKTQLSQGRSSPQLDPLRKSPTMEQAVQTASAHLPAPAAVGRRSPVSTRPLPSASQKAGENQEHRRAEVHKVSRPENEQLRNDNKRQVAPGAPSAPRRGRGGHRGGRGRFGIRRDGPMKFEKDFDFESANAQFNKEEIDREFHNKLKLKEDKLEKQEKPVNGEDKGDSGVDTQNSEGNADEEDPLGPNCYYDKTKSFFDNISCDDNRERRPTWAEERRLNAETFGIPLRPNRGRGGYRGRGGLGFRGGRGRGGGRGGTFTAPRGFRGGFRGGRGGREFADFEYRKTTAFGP
UniProt Q9BX40: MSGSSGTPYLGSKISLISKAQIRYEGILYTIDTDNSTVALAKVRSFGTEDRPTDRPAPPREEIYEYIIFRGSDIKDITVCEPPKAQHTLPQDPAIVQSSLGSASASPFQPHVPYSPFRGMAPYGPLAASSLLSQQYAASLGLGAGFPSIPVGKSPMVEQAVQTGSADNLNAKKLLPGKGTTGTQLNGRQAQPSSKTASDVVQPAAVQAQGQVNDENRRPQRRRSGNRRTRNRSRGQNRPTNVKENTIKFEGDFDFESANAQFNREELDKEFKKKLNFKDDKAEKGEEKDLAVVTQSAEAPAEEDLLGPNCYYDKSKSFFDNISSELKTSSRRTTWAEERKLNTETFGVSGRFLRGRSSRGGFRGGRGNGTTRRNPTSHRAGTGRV
UniProt Q14764: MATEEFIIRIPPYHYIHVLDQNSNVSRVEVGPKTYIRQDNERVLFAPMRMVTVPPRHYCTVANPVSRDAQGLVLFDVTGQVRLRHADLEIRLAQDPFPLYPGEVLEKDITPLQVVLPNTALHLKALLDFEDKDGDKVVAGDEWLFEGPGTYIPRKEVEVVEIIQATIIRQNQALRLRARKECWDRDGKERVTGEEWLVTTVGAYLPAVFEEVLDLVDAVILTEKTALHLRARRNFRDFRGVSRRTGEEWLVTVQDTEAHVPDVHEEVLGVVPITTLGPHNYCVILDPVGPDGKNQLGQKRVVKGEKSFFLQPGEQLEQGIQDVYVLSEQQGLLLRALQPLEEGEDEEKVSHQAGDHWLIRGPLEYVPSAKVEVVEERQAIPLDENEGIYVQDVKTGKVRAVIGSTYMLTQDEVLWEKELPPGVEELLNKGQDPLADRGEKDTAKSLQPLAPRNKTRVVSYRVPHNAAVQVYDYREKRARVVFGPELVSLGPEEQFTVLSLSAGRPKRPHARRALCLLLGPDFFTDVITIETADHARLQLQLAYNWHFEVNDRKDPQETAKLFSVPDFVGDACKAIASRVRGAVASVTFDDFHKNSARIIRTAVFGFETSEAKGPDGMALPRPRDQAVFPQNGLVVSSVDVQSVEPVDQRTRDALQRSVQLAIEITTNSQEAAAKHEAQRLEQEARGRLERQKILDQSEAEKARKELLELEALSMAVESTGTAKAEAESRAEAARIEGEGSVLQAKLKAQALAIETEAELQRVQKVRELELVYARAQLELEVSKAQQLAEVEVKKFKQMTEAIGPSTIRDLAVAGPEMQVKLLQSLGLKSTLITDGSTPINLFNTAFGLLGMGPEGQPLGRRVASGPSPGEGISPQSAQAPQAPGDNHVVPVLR
UniProt P11940: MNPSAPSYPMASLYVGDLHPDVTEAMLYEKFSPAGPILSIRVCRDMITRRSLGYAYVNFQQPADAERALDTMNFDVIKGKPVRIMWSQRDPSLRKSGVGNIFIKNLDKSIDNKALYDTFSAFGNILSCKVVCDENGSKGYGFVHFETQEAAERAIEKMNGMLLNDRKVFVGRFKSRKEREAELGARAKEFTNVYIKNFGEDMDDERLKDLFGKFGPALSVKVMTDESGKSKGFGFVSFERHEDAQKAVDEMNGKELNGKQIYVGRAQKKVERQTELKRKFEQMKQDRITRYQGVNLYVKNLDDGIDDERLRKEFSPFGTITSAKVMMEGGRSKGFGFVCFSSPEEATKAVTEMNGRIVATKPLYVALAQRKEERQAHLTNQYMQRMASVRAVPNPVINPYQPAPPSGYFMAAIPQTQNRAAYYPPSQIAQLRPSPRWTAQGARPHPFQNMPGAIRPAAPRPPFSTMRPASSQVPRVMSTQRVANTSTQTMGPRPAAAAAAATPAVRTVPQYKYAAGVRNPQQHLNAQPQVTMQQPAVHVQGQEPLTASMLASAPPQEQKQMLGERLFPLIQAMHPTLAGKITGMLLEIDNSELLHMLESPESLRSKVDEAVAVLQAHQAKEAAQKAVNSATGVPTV
UniProt Q8WUY3: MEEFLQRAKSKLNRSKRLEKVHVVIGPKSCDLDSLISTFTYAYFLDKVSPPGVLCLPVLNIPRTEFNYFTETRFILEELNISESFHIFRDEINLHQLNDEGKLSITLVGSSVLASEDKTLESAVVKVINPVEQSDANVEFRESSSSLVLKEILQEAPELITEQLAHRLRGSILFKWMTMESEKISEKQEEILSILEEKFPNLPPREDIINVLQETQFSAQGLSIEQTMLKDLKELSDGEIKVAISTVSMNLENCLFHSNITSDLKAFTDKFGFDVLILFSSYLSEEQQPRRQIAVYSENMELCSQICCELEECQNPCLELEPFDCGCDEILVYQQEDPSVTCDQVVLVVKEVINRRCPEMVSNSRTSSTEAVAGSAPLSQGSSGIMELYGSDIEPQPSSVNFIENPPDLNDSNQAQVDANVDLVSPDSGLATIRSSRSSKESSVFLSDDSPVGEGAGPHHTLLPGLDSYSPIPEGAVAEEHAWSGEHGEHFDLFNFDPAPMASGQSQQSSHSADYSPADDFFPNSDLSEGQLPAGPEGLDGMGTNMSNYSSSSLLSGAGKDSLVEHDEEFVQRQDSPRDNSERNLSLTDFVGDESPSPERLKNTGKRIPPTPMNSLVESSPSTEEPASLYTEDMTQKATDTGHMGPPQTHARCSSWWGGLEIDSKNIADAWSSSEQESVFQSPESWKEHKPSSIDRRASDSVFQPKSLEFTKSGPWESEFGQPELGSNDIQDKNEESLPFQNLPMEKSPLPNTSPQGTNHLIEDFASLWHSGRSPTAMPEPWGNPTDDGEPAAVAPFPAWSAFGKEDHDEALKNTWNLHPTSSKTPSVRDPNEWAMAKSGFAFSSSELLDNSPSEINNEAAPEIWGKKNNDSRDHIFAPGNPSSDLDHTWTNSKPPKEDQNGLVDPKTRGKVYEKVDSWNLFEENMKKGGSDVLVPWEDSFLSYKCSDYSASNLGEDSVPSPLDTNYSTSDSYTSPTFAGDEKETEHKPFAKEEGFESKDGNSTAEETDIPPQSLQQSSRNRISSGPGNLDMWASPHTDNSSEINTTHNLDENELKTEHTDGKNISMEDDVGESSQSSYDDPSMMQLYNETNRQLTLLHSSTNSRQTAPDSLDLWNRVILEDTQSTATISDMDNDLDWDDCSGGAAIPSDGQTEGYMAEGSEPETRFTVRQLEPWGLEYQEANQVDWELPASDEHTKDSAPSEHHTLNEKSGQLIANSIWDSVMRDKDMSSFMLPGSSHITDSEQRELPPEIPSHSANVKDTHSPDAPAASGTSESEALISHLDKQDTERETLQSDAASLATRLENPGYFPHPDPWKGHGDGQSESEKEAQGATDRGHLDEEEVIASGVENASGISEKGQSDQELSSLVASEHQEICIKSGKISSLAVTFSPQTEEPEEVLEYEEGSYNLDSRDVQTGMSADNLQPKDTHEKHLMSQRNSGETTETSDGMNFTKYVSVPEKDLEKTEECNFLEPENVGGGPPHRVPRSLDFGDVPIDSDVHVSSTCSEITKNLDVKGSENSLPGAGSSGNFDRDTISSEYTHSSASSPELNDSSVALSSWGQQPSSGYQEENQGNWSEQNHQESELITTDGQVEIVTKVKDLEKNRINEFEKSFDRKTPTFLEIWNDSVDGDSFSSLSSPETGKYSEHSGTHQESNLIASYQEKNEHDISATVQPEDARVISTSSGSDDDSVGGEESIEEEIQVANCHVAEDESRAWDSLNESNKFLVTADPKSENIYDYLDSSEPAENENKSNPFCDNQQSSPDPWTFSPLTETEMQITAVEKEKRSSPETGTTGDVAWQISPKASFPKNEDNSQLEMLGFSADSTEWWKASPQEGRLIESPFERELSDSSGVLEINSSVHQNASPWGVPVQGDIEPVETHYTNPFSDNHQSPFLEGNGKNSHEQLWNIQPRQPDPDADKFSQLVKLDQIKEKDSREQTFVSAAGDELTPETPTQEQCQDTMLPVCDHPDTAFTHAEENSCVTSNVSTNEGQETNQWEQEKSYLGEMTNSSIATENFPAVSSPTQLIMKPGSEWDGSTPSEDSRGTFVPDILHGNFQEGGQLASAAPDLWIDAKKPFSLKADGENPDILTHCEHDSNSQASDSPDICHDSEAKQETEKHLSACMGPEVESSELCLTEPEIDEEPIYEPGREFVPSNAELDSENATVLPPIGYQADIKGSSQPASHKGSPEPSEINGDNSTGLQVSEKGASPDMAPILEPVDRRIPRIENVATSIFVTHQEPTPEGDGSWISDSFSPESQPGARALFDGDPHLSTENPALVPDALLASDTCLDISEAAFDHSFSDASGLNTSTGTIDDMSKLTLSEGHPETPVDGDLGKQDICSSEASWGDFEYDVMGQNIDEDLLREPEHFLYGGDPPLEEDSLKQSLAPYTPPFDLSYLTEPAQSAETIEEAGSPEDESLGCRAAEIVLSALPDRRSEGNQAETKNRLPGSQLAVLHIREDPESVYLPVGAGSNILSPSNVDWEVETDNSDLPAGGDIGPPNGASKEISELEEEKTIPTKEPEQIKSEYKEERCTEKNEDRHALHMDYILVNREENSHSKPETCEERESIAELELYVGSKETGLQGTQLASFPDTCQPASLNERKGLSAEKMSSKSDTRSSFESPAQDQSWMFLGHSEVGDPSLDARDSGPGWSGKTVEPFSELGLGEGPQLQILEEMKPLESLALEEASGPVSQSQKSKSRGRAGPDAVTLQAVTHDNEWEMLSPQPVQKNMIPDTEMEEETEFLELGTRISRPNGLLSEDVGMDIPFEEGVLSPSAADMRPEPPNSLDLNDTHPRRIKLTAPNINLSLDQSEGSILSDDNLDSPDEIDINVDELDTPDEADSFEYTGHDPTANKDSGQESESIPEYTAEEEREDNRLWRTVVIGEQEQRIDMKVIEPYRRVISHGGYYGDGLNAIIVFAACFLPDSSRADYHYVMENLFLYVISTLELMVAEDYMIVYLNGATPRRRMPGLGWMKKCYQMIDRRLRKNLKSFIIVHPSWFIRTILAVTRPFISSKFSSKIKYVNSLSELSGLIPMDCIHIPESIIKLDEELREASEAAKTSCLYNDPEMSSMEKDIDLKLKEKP

The source of these data is paper PMC7177724.

The labels stand for the following.
B1: UPF1 (protein, UniProt Q92900 1-1129)
chain: MSVEAYGPSSQTLTFLDTEEAELLGADTQGSEFEFTDFTLPSQTQTPPGGPGGPGGGGAGGPGGAGAGAAAGQLDAQVGPEGILQNGAVDDSVAKTSQLLAELNFEEDEEDTYYTKDLPIHACSYCGIHDPACVVYCNTSKKWFCNGRGNTSGSHIVNHLVRAKCKEVTLHKDGPLGETVLECYNCGCRNVFLLGFIPAKADSVVVLLCRQPCASQSSLKDINWDSSQWQPLIQDRCFLSWLVKIPSEQEQLRARQITAQQINKLEELWKENPSATLEDLEKPGVDEEPQHVLLRYEDAYQYQNIFGPLVKLEADYDKKLKESQTQDNITVRWDLGLNKKRIAYFTLPKTDSGNEDLVIIWLRDMRLMQGDEICLRYKGDLAPLWKGIGHVIKVPDNYGDEIAIELRSSVGAPVEVTHNFQVDFVWKSTSFDRMQSALKTFAVDETSVSGYIYHKLLGHEVEDVIIKCQLPKRFTAQGLPDLNHSQVYAVKTVLQRPLSLIQGPPGTGKTVTSATIVYHLARQGNGPVLVCAPSNIAVDQLTEKIHQTGLKVVRLCAKSREAIDSPVSFLALHNQIRNMDSMPELQKLQQLKDETGELSSADEKRYRALKRTAERELLMNADVICCTCVGAGDPRLAKMQFRSILIDESTQATEPECMVPVVLGAKQLILVGDHCQLGPVVMCKKAAKAGLSQSLFERLVVLGIRPIRLQVQYRMHPALSAFPSNIFYEGSLQNGVTAADRVKKGFDFQWPQPDKPMFFYVTQGQEEIASSGTSYLNRTEAANVEKITTKLLKAGAKPDQIGIITPYEGQRSYLVQYMQFSGSLHTKLYQEVEIASVDAFQGREKDFIILSCVRANEHQGIGFLNDPRRLNVALTRARYGVIIVGNPKALSKQPLWNHLLNYYKEQKVLVEGPLNNLRESLMQFSKPRKLVNTINPGARFMTTAMYDAREAIIPGSVYDRSSQGRPSSMYFQTHDQIGMISAGPSHVAAMNIPIPFNLVMPPMPPPGYFGQANGPAAGRGTPKGKTGRGGRQKNRFGLPGPSQTNLPNSQASQDVASQPFSQGALTQGYISMSQPSQMSQPGLSQPELSQDSYLGDEFKSQIDVALSQDSTYQGERAYQHGGVTGLSQY
B2: MOV10 (protein, UniProt Q9HCE1 1-1003)
chain: MPSKFSCRQLREAGQCFESFLVVRGLDMETDRERLRTIYNRDFKISFGTPAPGFSSMLYGMKIANLAYVTKTRVRFFRLDRWADVRFPEKRRMKLGSDISKHHKSLLAKIFYDRAEYLHGKHGVDVEVQGPHEARDGQLLIRLDLNRKEVLTLRLRNGGTQSVTLTHLFPLCRTPQFAFYNEDQELPCPLGPGECYELHVHCKTSFVGYFPATVLWELLGPGESGSEGAGTFYIARFLAAVAHSPLAAQLKPMTPFKRTRITGNPVVTNRIEEGERPDRAKGYDLELSMALGTYYPPPRLRQLLPMLLQGTSIFTAPKEIAEIKAQLETALKWRNYEVKLRLLLHLEELQMEHDIRHYDLESVPMTWDPVDQNPRLLTLEVPGVTESRPSVLRGDHLFALLSSETHQEDPITYKGFVHKVELDRVKLSFSMSLLSRFVDGLTFKVNFTFNRQPLRVQHRALELTGRWLLWPMLFPVAPRDVPLLPSDVKLKLYDRSLESNPEQLQAMRHIVTGTTRPAPYIIFGPPGTGKTVTLVEAIKQVVKHLPKAHILACAPSNSGADLLCQRLRVHLPSSIYRLLAPSRDIRMVPEDIKPCCNWDAKKGEYVFPAKKKLQEYRVLITTLITAGRLVSAQFPIDHFTHIFIDEAGHCMEPESLVAIAGLMEVKETGDPGGQLVLAGDPRQLGPVLRSPLTQKHGLGYSLLERLLTYNSLYKKGPDGYDPQFITKLLRNYRSHPTILDIPNQLYYEGELQACADVVDRERFCRWAGLPRQGFPIIFHGVMGKDEREGNSPSFFNPEEAATVTSYLKLLLAPSSKKGKARLSPRSVGVISPYRKQVEKIRYCITKLDRELRGLDDIKDLKVGSVEEFQGQERSVILISTVRSSQSFVQLDLDFNLGFLKNPKRFNVAVTRAKALLIIVGNPLLLGHDPDWKVFLEFCKENGGYTGCPFPAKLDLQQGQNLLQGLSKLSPSTSGPHSHDYLPQEREGEGGLSLQVEPEWRNEL
B3: U2AF1 (protein, UniProt Q01081 1-240)
chain: MAEYLASIFGTEKDKVNCSFYFKIGACRHGDRCSRLHNKPTFSQTIALLNIYRNPQNSSQSADGLRCAVSDVEMQEHYDEFFEEVFTEMEEKYGEVEEMNVCDNLGDHLVGNVYVKFRREEDAEKAVIDLNNRWFNGQPIHAELSPVTDFREACCRQYEMGECTRGGFCNFMHLKPISRELRRELYGRRRKKHRSRSRSRERRSRSRDRGRGGGGGGGGGGGGRERDRRRSRDRERSGRF
B4: ATXN2L (protein, UniProt Q8WWM7 1-1075)
chain: MLKPQPLQQPSQPQQPPPTQQAVARRPPGGTSPPNGGLPGPLATSAAPPGPPAAASPCLGPVAAAGSGLRRGAEGILAPQPPPPQQHQERPGAAAIGSARGQSTGKGPPQSPVFEGVYNNSRMLHFLTAVVGSTCDVKVKNGTTYEGIFKTLSSKFELAVDAVHRKASEPAGGPRREDIVDTMVFKPSDVMLVHFRNVDFNYATKDKFTDSAIAMNSKVNGEHKEKVLQRWEGGDSNSDDYDLESDMSNGWDPNEMFKFNEENYGVKTTYDSSLSSYTVPLEKDNSEEFRQRELRAAQLAREIESSPQYRLRIAMENDDGRTEEEKHSAVQRQGSGRESPSLASREGKYIPLPQRVREGPRGGVRCSSSRGGRPGLSSLPPRGPHHLDNSSPGPGSEARGINGGPSRMSPKAQRPLRGAKTLSSPSNRPSGETSVPPPPAVGRMYPPRSPKSAAPAPISASCPEPPIGSAVPTSSASIPVTSSVSDPGVGSISPASPKISLAPTDVKELSTKEPGRTLEPQELARIAGKVPGLQNEQKRFQLEELRKFGAQFKLQPSSSPENSLDPFPPRILKEEPKGKEKEVDGLLTSEPMGSPVSSKTESVSDKEDKPPLAPSGGTEGPEQPPPPCPSQTGSPPVGLIKGEDKDEGPVAEQVKKSTLNPNAKEFNPTKPLLSVNKSTSTPTSPGPRTHSTPSIPVLTAGQSGLYSPQYISYIPQIHMGPAVQAPQMYPYPVSNSVPGQQGKYRGAKGSLPPQRSDQHQPASAPPMMQAAAAAGPPLVAATPYSSYIPYNPQQFPGQPAMMQPMAHYPSQPVFAPMLQSNPRMLTSGSHPQAIVSSSTPQYPSAEQPTPQALYATVHQSYPHHATQLHAHQPQPATTPTGSQPQSQHAAPSPVQHQAGQAPHLGSGQPQQNLYHPGALTGTPPSLPPGPSAQSPQSSFPQPAAVYAIHHQQLPHGFTNMAHVTQAHVQTGITAAPPPHPGAPHPPQVMLLHPPQSHGGPPQGAVPQSGVPALSASTPSPYPYIGHPQGEQPGQAPGFPGGADDRIREFSLAGGIWHGRAEGLQVGQDARVLGGE
B5: DDX1 (protein, UniProt Q92499 1-740)
chain: MAAFSEMGVMPEIAQAVEEMDWLLPTDIQAESIPLILGGGDVLMAAETGSGKTGAFSIPVIQIVYETLKDQQEGKKGKTTIKTGASVLNKWQMNPYDRGSAFAIGSDGLCCQSREVKEWHGCRATKGLMKGKHYYEVSCHDQGLCRVGWSTMQASLDLGTDKFGFGFGGTGKKSHNKQFDNYGEEFTMHDTIGCYLDIDKGHVKFSKNGKDLGLAFEIPPHMKNQALFPACVLKNAELKFNFGEEEFKFPPKDGFVALSKAPDGYIVKSQHSGNAQVTQTKFLPNAPKALIVEPSRELAEQTLNNIKQFKKYIDNPKLRELLIIGGVAARDQLSVLENGVDIVVGTPGRLDDLVSTGKLNLSQVRFLVLDEADGLLSQGYSDFINRMHNQIPQVTSDGKRLQVIVCSATLHSFDVKKLSEKIMHFPTWVDLKGEDSVPDTVHHVVVPVNPKTDRLWERLGKSHIRTDDVHAKDNTRPGANSPEMWSEAIKILKGEYAVRAIKEHKMDQAIIFCRTKIDCDNLEQYFIQQGGGPDKKGHQFSCVCLHGDRKPHERKQNLERFKKGDVRFLICTDVAARGIDIHGVPYVINVTLPDEKQNYVHRIGRVGRAERMGLAISLVATEKEKVWYHVCSSRGKGCYNTRLKEDGGCTIWYNEMQLLSEIEEHLNCTISQVEPDIKVPVDEFDGKVTYGQKRAAGGGSYKGHVDILAPTVQELAALEKEAQTSFLHLGYLPNQLFRTF
B6: DCP1B (protein, UniProt Q8IZD4 1-617)
chain: MAAVAAGGLVGKGRDISLAALQRHDPYINRIVDVASQVALYTFGHRANEWEKTDVEGTLFVYTRSASPKHGFTIMNRLSMENRTEPITKDLDFQLQDPFLLYRNARLSIYGIWFYDKEECQRIAELMKNLTQYEQLKAHQGTGAGISPVILNSGEGKEVDILRMLIKAKDEYTKCKTCSEPKKITSSSAIYDNPNLIKPIPVKPSENQQQRIPQPNQTLDPEPQHLSLTALFGKQDKATCQETVEPPQTLHQQQQQQQQQQEKLPIRQGVVRSLSYEEPRRHSPPIEKQLCPAIQKLMVRSADLHPLSELPENRPCENGSTHSAGEFFTGPVQPGSPHNIGTSRGVQNASRTQNLFEKLQSTPGAANKCDPSTPAPASSAALNRSRAPTSVTPVAPGKGLAQPPQAYFNGSLPPQTVGHQAHGREQSTLPRQTLPISGSQTGSSGVISPQELLKKLQIVQQEQQLHASNRPALAAKFPVLAQSSGTGKPLESWINKTPNTEQQTPLFQVISPQRIPATAAPSLLMSPMVFAQPTSVPPKERESGLLPVGGQEPPAAATSLLLPIQSPEPSVITSSPLTKLQLQEALLYLIQNDDNFLNIIYEAYLFSMTQAAMKKTM

For this assay, the target named is DDX6 helicase (human (endogenous in hASCs)) (UniProt P26196). Nature of the assay: affinity purification with mass spectrometry; endogenous DDX6 immunoprecipitated with anti-DDX6 (MBL PD009) and protein A Dynabeads after precleaning, TRIzol extraction; hASCs not induced or induced to adipogenesis or osteogenesis for 24 h; lysis buffer with 1% NP-40 and RNase inhibitor; washes up to 500 mM NaCl and 2 M urea; proteins found on precleaning beads removed; two donors, two technical replicates.
On to ELAVL1 (from UniProt Q15717 1-326), for which the binding entry is on record as “binds”.

Regarding FAM98A (from UniProt Q8NCA5 1-518), the binding result was “binds”.

As to IGF2BP2 (from UniProt Q9Y6M1 1-599), the binding result is on record as “binds”.

With LSM14A (from UniProt Q8ND56 1-463), the binding entry is “binds”.

Consider LSM14B (from UniProt Q9BX40 1-385), for which the binding result was “binds”.

As for MVP (from UniProt Q14764 1-893), the binding entry is “binds”.

As for MYH9 (from UniProt P35579 1-1960), the binding result is reported as “binds”.

Consider PABPC1 (from UniProt P11940 1-636), for which the binding entry is reported as “binds”.

With PRUNE2 (from UniProt Q8WUY3 1-3088), the binding result is reported as “binds”.

Take STAU1 (from UniProt O95793 1-577): the binding result is recorded as “binds”.

Take B1: the binding entry is “binds”.

For B2, the binding result was “binds”.

As to B3, the binding entry is reported as “binds”.

Take B4: the binding entry was “binds”.

Turning to B5, the binding entry is listed as “binds”.

As for B6, the binding result is given as “binds”.
